Measured data: PubChem BioAssay AID1259254 (NCATS, 2017)
The whole screen tested about 59,000 reagents; below is a part drawn at random. Over the whole deposit, about 1,550 (2.6%) were called active. 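G2 share is only a proxy for re-replication; each gene was hit by three separate siRNAs, and active genes were retested.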 The numbers tell different reagents against one gene apart. Not all columns of the deposit are shown. No sequences are given here. Not given: the amount of reagent.

Test: 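Gene knock-downs that lead to re-replication, shown by excess G2 DNA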 (primary screen)
Cells: human HCT116 colorectal cancer cells
Reagents: single siRNA against human genes
Time to read-out: 3 days
Detection: 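Imaged Hoechst DNA stain sorts each cell into a cycle phase by DNA amount; per plate, G2 fraction set to 0% for non-targeting and 100% for GMNN siRNA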
Reading the numbers: G2 robust z-score and G2 cells, % of GMNN control: higher = more G2 cells, more excess DNA replication
Hit rule: 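An siRNA counts as active if its G2 robust z-score lies at least 5 MADs above the screen median; here such calls match roughly 38% of GMNN control or more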

CFHR4 #1: G2 robust z-score = -0.965; G2 cells, % of GMNN control = -3.82; call = inactive
CFHR4 #2: G2 robust z-score = -0.788; G2 cells, % of GMNN control = -2.58; call = inactive
CFHR4 #3: G2 robust z-score = 2.36; G2 cells, % of GMNN control = 19.6; call = inactive
MINK1 #1: G2 robust z-score = -0.105; G2 cells, % of GMNN control = 2.23; call = inactive
MINK1 #2: G2 robust z-score = 2.18; G2 cells, % of GMNN control = 18.3; call = inactive
MINK1 #3: G2 robust z-score = 1.57; G2 cells, % of GMNN control = 14; call = inactive
ART5 #1: G2 robust z-score = -0.185; G2 cells, % of GMNN control = 1.67; call = inactive
ART5 #2: G2 robust z-score = -0.964; G2 cells, % of GMNN control = -3.82; call = inactive
ART5 #3: G2 robust z-score = 3.58; G2 cells, % of GMNN control = 28.2; call = inactive
CCDC158 #1: G2 robust z-score = 0.272; G2 cells, % of GMNN control = 4.88; call = inactive
CCDC158 #2: G2 robust z-score = 4.39; G2 cells, % of GMNN control = 33.9; call = inactive
CCDC158 #3: G2 robust z-score = -0.711; G2 cells, % of GMNN control = -2.04; call = inactive
PPIAP55 #1: G2 robust z-score = -0.134; G2 cells, % of GMNN control = 2.03; call = inactive
PPIAP55 #2: G2 robust z-score = 0.366; G2 cells, % of GMNN control = 5.54; call = inactive
PPIAP55 #3: G2 robust z-score = -1.02; G2 cells, % of GMNN control = -4.21; call = inactive
LINC00330 #1: G2 robust z-score = -0.746; G2 cells, % of GMNN control = -2.28; call = inactive
LINC00330 #2: G2 robust z-score = -0.987; G2 cells, % of GMNN control = -3.97; call = inactive
LINC00330 #3: G2 robust z-score = 0.104; G2 cells, % of GMNN control = 3.7; call = inactive
NT5C2 #1: G2 robust z-score = 2.86; G2 cells, % of GMNN control = 23.1; call = inactive
NT5C2 #2: G2 robust z-score = 0.0596; G2 cells, % of GMNN control = 3.39; call = inactive
NT5C2 #3: G2 robust z-score = 1.34; G2 cells, % of GMNN control = 12.4; call = inactive
PARL #1: G2 robust z-score = 4; G2 cells, % of GMNN control = 31.1; call = inactive
PARL #2: G2 robust z-score = 5.77; G2 cells, % of GMNN control = 43.5; call = active
PARL #3: G2 robust z-score = -0.361; G2 cells, % of GMNN control = 0.429; call = inactive

Entries above whose target name begins with L or l:
LINC00330 #1: G2 robust z-score = -0.746; G2 cells, % of GMNN control = -2.28; call = inactive
LINC00330 #2: G2 robust z-score = -0.987; G2 cells, % of GMNN control = -3.97; call = inactive
LINC00330 #3: G2 robust z-score = 0.104; G2 cells, % of GMNN control = 3.7; call = inactive
